Here are results for five substances from article PMC4466140, “Evolution of the SH3 Domain Specificity Landscape in Yeasts” (PLoS ONE, 2015).

These are yes or no findings as the source states them, for the method shown. A result given as binding can be weak or reduced; the word gives no strength.

Assay [1] deals with T1, Type II peptide #66 (yeast two-hybrid bait) (S. cerevisiae).
T1 sequence (peptide): SSSSTPPTLPPRRIE
Kind of assay: two-hybrid; peptides as bait in pGBKT7, SH3 domains as prey in pYR035 (modified pGADT7); S. cerevisiae Gold strain; ~10^4 cells spotted on His-, His- with 2.5, 5 or 10 mM 3AT, or Ade- plates; three days at 28°C.

Assay [2] concerns the target T2, non-canonical Type I peptide #268 (yeast two-hybrid bait) (S. cerevisiae).
T2 sequence (peptide): ITHRLRISIPGITGR
The description is as above.

The target in assay [3] is T3, Type II peptide #66 (SPOT membrane) (S. cerevisiae).
T3 sequence (peptide): SSSSTPPTLPPRRIE
Kind of assay: peptide or protein array; SPOT: 15-mer peptides on cellulose (CAPE) membrane; GST-SH3 domains at 10 μg/ml overnight at 4°C in blocking buffer (TBS, 50 mM Tris/HCl pH 7.6, 150 mM NaCl, Blocking Buffer, 0.15 M sucrose); detected with anti-GST antibody and HRP conjugate; both purified.

The target in assay [4] is T4, non-canonical Type I peptide #268 (SPOT membrane) (S. cerevisiae).
T4 sequence (peptide): ITHRLRISIPGITGR
The assay is described as above.

As to “A. gossypii Rvs167 SH3 domain (yeast two-hybrid prey) (domain or fragment)”, the binding result in assay [1] is given as “binds”.

As for “C. albicans Rvs167-2 SH3 domain (yeast two-hybrid prey) (domain or fragment)”, the binding result in assay [1] and in assay [2] was “no binding” each time.

Regarding “C. albicans Rvs167-3 SH3 domain (yeast two-hybrid prey) (domain or fragment)”, the binding result in assay [1] is “no binding”; in assay [2], “binds”.

Turning to “GST-tagged A. gossypii Rvs167 SH3 domain (domain or fragment)”, the binding result in assay [3] is “binds”.

Consider “GST-tagged C. albicans Rvs167-3 SH3 domain (domain or fragment)”, for which the binding entry in assay [4] was “binds”.
